# Data as given in the supplement of paper PMC8728848.
# The other results are listed elsewhere or left out.
# B1: FGF1 (Homo sapiens), P05230 (protein)
# chain: MAEGEITTFTALTEKFNLPPGNYKKPKLLYSNGGHFLRILPDGTVDGTRDRSDQHIQLQLSAESVGEVYIKSTETGQYLAMTDGLLYGSQTPNEECLFLERLEENHYNTYISKHAEKNWFVGLKKNGSCKRGPRTHYGQAILFLPLPASSED
# How the values were obtained:
# Test in all cases: glycan array binding signal (z-score within array); higher = stronger binding
# Conditions in all cases: glycan notation: IUPAC condensed, linker removed
# [1] = target: Fuc(a1-3)[Gal3S(b1-4)]GlcNAc
# Method in brief: (§1)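 Glycan array data were curated from 3228 arrays in the Consortium for Functional Glycomics database and kept only where the protein sequence was available. Glycan names were converted to IUPAC-condensed notation, and columns mapping to the same glycan were averaged. The binding signal is a within-array Z-score, averaged across arrays of the same protein sequence at different concentrations or buffers and across linkers. Negative Z-scores can be read as non-binding.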
# [2] = target: Fuc(a1-3)[Gal3S(b1-4)]GlcNAc6S
# Method in brief: as §1
# [3] = target: Fuc(a1-3)[GalNAc(b1-4)]GlcNAc
# Method in brief: as §1
# [4] = target: Fuc(a1-3)[GalNAc(b1-4)]GlcNAc6S
# Method in brief: as §1
# Fuc(a1-4)GlcNAc = target: Fuc(a1-4)GlcNAc
# Method in brief: as §1
# Fuc(b1-3)GlcNAc = target: Fuc(b1-3)GlcNAc
# Method in brief: as §1
# Gal(a1-2)Gal = target: Gal(a1-2)Gal
# Method in brief: as §1
# Gal(a1-3)Gal = target: Gal(a1-3)Gal
# Method in brief: as §1
# Gal(a1-3)Gal(b1-3)GlcNAc = target: Gal(a1-3)Gal(b1-3)GlcNAc
# Method in brief: as §1
# [5] = target: Gal(a1-3)Gal(b1-3)GlcNAc(b1-2)Man
# Method in brief: as §1
# [6] = target: Gal(a1-3)Gal(b1-3)GlcNAc(b1-2)Man(a1-3)[Gal(a1-3)Gal(b1-3)GlcNAc(b1-2)Man(a1-6)]Man(b1-4)GlcNAc(b1-4)GlcNAc
# Method in brief: as §1
# [7] = target: Gal(a1-3)Gal(b1-3)GlcNAc(b1-3)GalNAc
# Method in brief: as §1
# [8] = target: Gal(a1-3)Gal(b1-3)GlcNAc(b1-6)GalNAc
# Method in brief: as §1
# [9] = target: Gal(a1-3)Gal(b1-3)[Fuc(a1-4)]GlcNAc(b1-2)Man(a1-3)[Gal(a1-3)Gal(b1-3)[Fuc(a1-4)]GlcNAc(b1-2)Man(a1-6)]Man(b1-4)GlcNAc(b1-4)GlcNAc
# Method in brief: as §1
# Gal(a1-3)Gal(b1-4)Glc = target: Gal(a1-3)Gal(b1-4)Glc
# Method in brief: as §1
# Gal(a1-3)Gal(b1-4)GlcNAc = target: Gal(a1-3)Gal(b1-4)GlcNAc
# Method in brief: as §1
# [10] = target: Gal(a1-3)Gal(b1-4)GlcNAc(b1-2)Man
# Method in brief: as §1
# [11] = target: Gal(a1-3)Gal(b1-4)GlcNAc(b1-2)Man(a1-3)[Gal(a1-3)Gal(b1-4)GlcNAc(b1-2)Man(a1-6)]Man(b1-4)GlcNAc(b1-4)GlcNAc
# Method in brief: as §1
# [12] = target: Gal(a1-3)Gal(b1-4)GlcNAc(b1-3)GalNAc
# Method in brief: as §1
# [13] = target: Gal(a1-3)Gal(b1-4)GlcNAc(b1-6)GalNAc
# Method in brief: as §1
# [14] = target: Gal(a1-3)Gal(b1-4)[Fuc(a1-3)]GlcNAc
# Method in brief: as §1
# [15] = target: Gal(a1-3)Gal(b1-4)[Fuc(a1-3)]GlcNAc(b1-2)Man(a1-3)[Gal(a1-3)Gal(b1-4)[Fuc(a1-3)]GlcNAc(b1-2)Man(a1-6)]Man(b1-4)GlcNAc(b1-4)GlcNAc
# Method in brief: as §1
# Gal(a1-3)GalNAc = target: Gal(a1-3)GalNAc
# Method in brief: as §1
# [16] = target: Gal(a1-3)[Gal(a1-4)]Gal(b1-4)GlcNAc
# Method in brief: as §1
# [17] = target: Gal(a1-4)Gal(b1-3)GlcNAc(b1-2)Man(a1-3)[Gal(a1-4)Gal(b1-3)GlcNAc(b1-2)Man(a1-6)]Man(b1-4)GlcNAc(b1-4)GlcNAc
# Method in brief: as §1
# Gal(a1-4)Gal(b1-4)Glc = target: Gal(a1-4)Gal(b1-4)Glc
# Method in brief: as §1
# Gal(a1-4)Gal(b1-4)GlcNAc = target: Gal(a1-4)Gal(b1-4)GlcNAc
# Method in brief: as §1
# [18] = target: Gal(a1-4)Gal(b1-4)GlcNAc(b1-2)Man(a1-3)[Gal(a1-4)Gal(b1-4)GlcNAc(b1-2)Man(a1-6)]Man(b1-4)GlcNAc(b1-4)GlcNAc
# Method in brief: as §1
# [19] = target: Gal(a1-4)Gal(b1-4)GlcNAc(b1-3)Gal(b1-4)Glc
# Method in brief: as §1
# Gal(a1-4)GlcNAc = target: Gal(a1-4)GlcNAc
# Method in brief: as §1
# Gal(a1-6)Glc = target: Gal(a1-6)Glc
# Method in brief: as §1
# Gal(b1-2)Gal = target: Gal(b1-2)Gal
# Method in brief: as §1
# Gal(b1-3)Gal = target: Gal(b1-3)Gal
# Method in brief: as §1
# Gal(b1-3)Gal(b1-4)GlcNAc = target: Gal(b1-3)Gal(b1-4)GlcNAc
# Method in brief: as §1
# Gal(b1-3)GalNAc = target: Gal(b1-3)GalNAc
# Method in brief: as §1
# [20] = target: Gal(b1-3)GalNAc(a1-3)[Fuc(a1-2)]Gal(b1-4)Glc
# Method in brief: as §1
# [21] = target: Gal(b1-3)GalNAc(a1-3)[Fuc(a1-2)]Gal(b1-4)GlcNAc
# Method in brief: as §1
# Gal(b1-3)GalNAc(b1-3)Gal = target: Gal(b1-3)GalNAc(b1-3)Gal
# Method in brief: as §1
# [22] = target: Gal(b1-3)GalNAc(b1-3)Gal(a1-4)Gal(b1-4)Glc
# Method in brief: as §1
# [23] = target: Gal(b1-3)GalNAc(b1-4)Gal(b1-4)Glc
# Method in brief: as §1
# [24] = target: Gal(b1-3)GalNAc(b1-4)[Neu5Ac(a2-3)]Gal(b1-4)Glc
# Method in brief: as §1
# Gal(b1-3)GlcNAc = target: Gal(b1-3)GlcNAc
# Method in brief: as §1
# [25] = target: Gal(b1-3)GlcNAc(a1-3)Gal(b1-4)GlcNAc
# Method in brief: as §1
# [26] = target: Gal(b1-3)GlcNAc(a1-6)Gal(b1-4)GlcNAc
# Method in brief: as §1
# Gal(b1-3)GlcNAc(b1-2)Man = target: Gal(b1-3)GlcNAc(b1-2)Man
# Method in brief: as §1
binder,measurement,setting,value
B1,glycan array binding signal (z-score),[1],1.86
same,glycan array binding signal (z-score),[2],1.09
same,glycan array binding signal (z-score),[3],0.445
same,glycan array binding signal (z-score),[4],-0.781
same,glycan array binding signal (z-score),Fuc(a1-4)GlcNAc,-0.368
same,glycan array binding signal (z-score),Fuc(b1-3)GlcNAc,0.133
same,glycan array binding signal (z-score),Gal(a1-2)Gal,0.769
same,glycan array binding signal (z-score),Gal(a1-3)Gal,-0.679
same,glycan array binding signal (z-score),Gal(a1-3)Gal(b1-3)GlcNAc,-0.763
same,glycan array binding signal (z-score),[5],-0.484
same,glycan array binding signal (z-score),[6],0.78
same,glycan array binding signal (z-score),[7],0.646
same,glycan array binding signal (z-score),[8],-0.792
same,glycan array binding signal (z-score),[9],3.56
same,glycan array binding signal (z-score),Gal(a1-3)Gal(b1-4)Glc,-0.478
same,glycan array binding signal (z-score),Gal(a1-3)Gal(b1-4)GlcNAc,-0.714
same,glycan array binding signal (z-score),[10],-0.052
same,glycan array binding signal (z-score),[11],-0.165
same,glycan array binding signal (z-score),[12],-0.582
same,glycan array binding signal (z-score),[13],-0.776
same,glycan array binding signal (z-score),[14],-0.881
same,glycan array binding signal (z-score),[15],2.57
same,glycan array binding signal (z-score),Gal(a1-3)GalNAc,-0.372
same,glycan array binding signal (z-score),[16],-0.486
same,glycan array binding signal (z-score),[17],0.031
same,glycan array binding signal (z-score),Gal(a1-4)Gal(b1-4)Glc,0.448
same,glycan array binding signal (z-score),Gal(a1-4)Gal(b1-4)GlcNAc,0.333
same,glycan array binding signal (z-score),[18],-0.133
same,glycan array binding signal (z-score),[19],0.423
same,glycan array binding signal (z-score),Gal(a1-4)GlcNAc,0.903
same,glycan array binding signal (z-score),Gal(a1-6)Glc,-0.239
same,glycan array binding signal (z-score),Gal(b1-2)Gal,1.07
same,glycan array binding signal (z-score),Gal(b1-3)Gal,0.557
same,glycan array binding signal (z-score),Gal(b1-3)Gal(b1-4)GlcNAc,0.093
same,glycan array binding signal (z-score),Gal(b1-3)GalNAc,0.296
same,glycan array binding signal (z-score),[20],-0.327
same,glycan array binding signal (z-score),[21],-0.291
same,glycan array binding signal (z-score),Gal(b1-3)GalNAc(b1-3)Gal,-0.753
same,glycan array binding signal (z-score),[22],0.672
same,glycan array binding signal (z-score),[23],1.53
same,glycan array binding signal (z-score),[24],-0.686
same,glycan array binding signal (z-score),Gal(b1-3)GlcNAc,-0.163
same,glycan array binding signal (z-score),[25],-0.713
same,glycan array binding signal (z-score),[26],-0.933
same,glycan array binding signal (z-score),Gal(b1-3)GlcNAc(b1-2)Man,1.29

# Random excerpt: two entries already listed.
binder,measurement,setting,value
B1,glycan array binding signal (z-score),[6],0.78
same,glycan array binding signal (z-score),Fuc(a1-4)GlcNAc,-0.368
